Experimental data published in article PMC6853912.
Results are given in words; binding and its absence hold for the method and conditions named. In cells and extracts the contact can be indirect. Some binding calls cover weakened binding; strength is not graded here.

Protein sequences, listed by entry. Tags and fused reporters are not part of them.
UniProt Q04206: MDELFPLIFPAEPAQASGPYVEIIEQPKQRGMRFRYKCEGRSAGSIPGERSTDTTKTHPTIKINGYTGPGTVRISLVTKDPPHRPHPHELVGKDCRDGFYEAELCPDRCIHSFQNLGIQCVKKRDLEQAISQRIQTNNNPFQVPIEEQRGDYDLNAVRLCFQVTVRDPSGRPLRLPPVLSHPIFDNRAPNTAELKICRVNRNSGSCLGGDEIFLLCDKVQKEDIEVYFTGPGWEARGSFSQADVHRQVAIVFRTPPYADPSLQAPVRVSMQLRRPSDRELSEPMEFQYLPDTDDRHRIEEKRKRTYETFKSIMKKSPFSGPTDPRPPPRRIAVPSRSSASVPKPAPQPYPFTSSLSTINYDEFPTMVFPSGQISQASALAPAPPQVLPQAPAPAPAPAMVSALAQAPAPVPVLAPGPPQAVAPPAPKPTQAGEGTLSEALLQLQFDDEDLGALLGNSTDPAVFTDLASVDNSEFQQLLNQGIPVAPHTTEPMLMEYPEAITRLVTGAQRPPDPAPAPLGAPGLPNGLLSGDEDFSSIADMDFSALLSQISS

Molecular target: T1, vitamin D receptor (human (endogenous in ACHN)) (UniProt P11473)
T1 sequence: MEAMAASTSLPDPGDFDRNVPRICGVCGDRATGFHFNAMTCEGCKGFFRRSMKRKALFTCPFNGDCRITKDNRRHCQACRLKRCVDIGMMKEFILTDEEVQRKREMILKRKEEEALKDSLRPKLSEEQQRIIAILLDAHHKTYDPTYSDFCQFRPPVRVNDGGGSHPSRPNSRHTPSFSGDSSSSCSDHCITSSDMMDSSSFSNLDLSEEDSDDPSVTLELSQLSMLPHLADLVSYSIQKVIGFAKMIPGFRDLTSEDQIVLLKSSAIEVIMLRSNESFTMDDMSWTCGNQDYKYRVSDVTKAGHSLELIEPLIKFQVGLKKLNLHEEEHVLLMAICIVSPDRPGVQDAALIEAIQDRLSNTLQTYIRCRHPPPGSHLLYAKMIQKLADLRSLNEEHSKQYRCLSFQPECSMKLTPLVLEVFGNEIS
Experiment: co-IP; ACHN cells pretreated with 1,25(OH)2D3 for 24 h, then stimulated with LPS for 6 h; total lysate (1000 μg protein) precleared with protein A/G-agarose, precipitated with 2 μg anti-VDR antibody and protein A/G-agarose; immunoblots with VDR and NF-κB p65 antibodies

**Q.** With “NF-κB p65 subunit (from UniProt Q04206 1-551)” as the substance, how does the binding read?
**A.** The binding was “binds”.
